Our source for the binding values is publication PMC7673040.

Results are given in words; binding and its absence hold for the method and conditions named. Some entries that bind do so weakly or less than the wild type.

For this assay, the target named is T1, SRP72 (human) (UniProt O76094).
T1 sequence: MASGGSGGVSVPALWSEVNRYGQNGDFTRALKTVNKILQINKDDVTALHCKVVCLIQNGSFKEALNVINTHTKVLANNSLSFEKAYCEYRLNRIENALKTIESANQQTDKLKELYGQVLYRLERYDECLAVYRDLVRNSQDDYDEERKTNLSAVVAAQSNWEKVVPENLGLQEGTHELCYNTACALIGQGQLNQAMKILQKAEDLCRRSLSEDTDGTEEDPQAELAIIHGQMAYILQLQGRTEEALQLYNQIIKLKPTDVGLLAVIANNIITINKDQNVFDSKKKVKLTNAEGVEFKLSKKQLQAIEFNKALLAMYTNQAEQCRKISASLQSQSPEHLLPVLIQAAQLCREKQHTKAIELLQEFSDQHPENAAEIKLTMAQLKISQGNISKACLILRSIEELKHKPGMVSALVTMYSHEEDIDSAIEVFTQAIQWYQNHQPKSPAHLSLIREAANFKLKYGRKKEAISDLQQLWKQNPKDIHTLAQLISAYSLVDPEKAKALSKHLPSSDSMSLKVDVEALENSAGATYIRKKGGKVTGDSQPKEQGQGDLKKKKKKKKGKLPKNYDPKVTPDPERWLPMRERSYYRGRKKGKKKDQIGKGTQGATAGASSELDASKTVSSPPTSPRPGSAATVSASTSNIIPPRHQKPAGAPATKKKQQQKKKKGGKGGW
The experiment in a line: co-purification; SRP68 and SRP72 co-expressed in yeast; Ni-Sepharose and MonoS.

B1: SRP68 (protein, UniProt Q9UHB9 1-627)
chain: MAAEKQVPGGGGGGGSGGGGGSGGGGSGGGRGAGGEENKENERPSAGSKANKEFGDSLSLEILQIIKESQQQHGLRHGDFQRYRGYCSRRQRRLRKTLNFKMGNRHKFTGKKVTEELLTDNRYLLLVLMDAERAWSYAMQLKQEANTEPRKRFHLLSRLRKAVKHAEELERLCESNRVDAKTKLEAQAYTAYLSGMLRFEHQEWKAAIEAFNKCKTIYEKLASAFTEEQAVLYNQRVEEISPNIRYCAYNIGDQSAINELMQMRLRSGGTEGLLAEKLEALITQTRAKQAATMSEVEWRGRTVPVKIDKVRIFLLGLADNEAAIVQAESEETKERLFESMLSECRDAIQVVREELKPDQKQRDYILEGEPGKVSNLQYLHSYLTYIKLSTAIKRNENMAKGLQRALLQQQPEDDSKRSPRPQDLIRLYDIILQNLVELLQLPGLEEDKAFQKEIGLKTLVFKAYRCFFIAQSYVLVKKWSEALVLYDRVLKYANEVNSDAGAFKNSLKDLPDVQELITQVRSEKCSLQAAAILDANDAHQTETSSSQVKDNKPLVERFETFCLDPSLVTKQANLVHFPPGFQPIPCKPLFFDLALNHVAFPPLEDKLEQKTKSGLTGYIKGIFGFRS
For the molecule B1, the binding result is “binds”.
